Patent US10857167B2, “Use of oligosaccharide compositions to enhance weight gain” (Children's Hospital Medical Center, priority 2015, dated 2020)
The source gives many values for each of these; only a part stands here.

Tested on: distal small bowel gene expression
Experiment: RNA sequencing / transcriptional analysis of small bowel 56 days after ICR (2′-FL signature response)
Format: in vivo, mouse
From the text: Luminal small bowel contents were expressed into AllProtect Tissue Reagent (Qiagen Inc, CA). Bacterial DNA was extracted using the AllPrep DNA/RNA Mini Kit (Qiagen Inc, CA), according to kit instructions and prior to sequencing (described below). Small bowel tissue samples for RNA were placed into RNA Later (Life Technologies, NY). RNA extraction was accomplished following Qiagen RNeasy Plus Kit instruction (Qiagen Inc, CA). All nucleic acid samples were then stored at -80 Celsius until sequenced (described below). Transcriptional analysis was carried out on resected and harvested small bowel samples obtained from operated mice taken to 8 weeks. Murine RNA sequencing libraries were prepared from approximately 1.5 μg RNA using the TruSeq RNA Sample Preparation Kit (Illumina, Calif.) and sequenced using the HiSeq 2000 Sequencing System (Illumina, Calif.) with single-end 50 bp reads. Following removal of primers and barcodes, sequences were aligned to the mm10 genome using reference annotations from UCSC (Rosenbloom et al. (2015) Nucleic acids research 43: […]-681) (n=36,186 entities). Aligned reads were quantified and used to compute reads per kilobase per million mapped reads (RPKM); raw counts were then normalized using the DESeq algorithm and each harvested sample was baselined to its own resected sample. A filter was applied to the data, requiring at least three reads in all samples of at least one of the four experimental conditions (n=14,489 entities). The data discussed in this publication have been deposited in NCBI's Gene Expression Omnibus and are accessible through NCBI Gene Expression Omnibus (GEO) Series accession number GSE72590. Edgar et al. (2002) Nucleic acids research 30: 207-210. In order to characterize the impact of 2'-FL supplementation while accounting for the effect of ileoecal resection, a t-test was applied between resected and harvested samples within control and experimental animals. Significance was set at a p-value of ≤0.05 and a fold change of 3, which generated 2,576 differentially regulated entities across two comparisons. Gene set unions and intersections of the control and experimental gene sets were identified through Venn diagrams. From the master list, the gene list specific to animals supplemented with 2'-FL were removed in order to identify genes differentially regulated only by ICR (n=546 entities); this gene set characterizes the adaptive response. Further, the 2'-FL response (n=2,030 entities) was identified by removing the adaptive response signature described above from the master list, leaving only genes regulated by 2'-FL supplementation after ICR which were not found in the non-supplemented adaptive response. Heatmaps were generated using hierarchical clustering with the Pearson's Centered distance metric and the average linkage rule; both entities and samples were clustered. All genomic analyses described above were performed in Strand NGS (Strand Life Sciences, CA). Gene list functional enrichment was initially discovered using ToppFun, a member of the ToppGene Suite. Chen et al. (2009) Nucleic acids research 37: […]-311. No statistical correction was selected. Gene lists were further analyzed using ClueGO, a plugin for Cytoscape designed to decipher functionally grouped gene ontology and pathway annotation networks. Bindea et al. (2009) Bioinformatics 25: 1091-1093. At the time of data analysis, the annotation files were updated from sources to Jan. 1, 2015. “GO Term Fusion” was enabled to manage ontologic term redundancy and network specificity was set to medium. Results were restricted to pathways with p≤0.05 using Benjamini-Hochberg correction and Kappa scoring was set to 0.4. Biocyc annotations were assigned a rectangle, gene ontology biologic processes were assigned an ellipse, and […] annotations were assigned a diamond shape. No meaning was assigned to size or color. […]

With `C[C@@H]1O[C@@H](O[C@H]2[C@H](O[C@H]3[C@H](O)[C@@H](O)C(O)O[C@@H]3CO)O[C@H](CO)[C@H](O)[C@@H]2O)[C@@H](O)[C@H](O)[C@@H]1O` (stereo partly shown) [2′-FL, 2′-fucosyllactose] the “Fold Change (Pre- to Post-op)” value (gene Slc10a6) was −4.135, the “Fold Change (Pre- to Post-op)” value (gene Slc12a4) was −3.23 and the “Fold Change (Pre- to Post-op)” value (gene Slc12a7) was −3.214. The “Fold Change (Pre- to Post-op)” value (gene Slc16a2) was −3.982, the “Fold Change (Pre- to Post-op)” value (gene Slc18a3) was −3.831 and the “Fold Change (Pre- to Post-op)” value (gene Slc25a23) was −4.08. The “Fold Change (Pre- to Post-op)” value (gene Slc26a2) was −3.385, the “Fold Change (Pre- to Post-op)” value (gene Slc27a1) was −3.365 and the “Fold Change (Pre- to Post-op)” value (gene Slc29a3) was −6.657. The “Fold Change (Pre- to Post-op)” value (gene Slc29a4) was −8.795, the “Fold Change (Pre- to Post-op)” value (gene Slc35d3) was −3.219 and the “Fold Change (Pre- to Post-op)” value (gene Slc35f1) was −4.695. The “Fold Change (Pre- to Post-op)” value (gene Slc36a2) was −12.88, the “Fold Change (Pre- to Post-op)” value (gene Slc38a1) was −4.668 and the “Fold Change (Pre- to Post-op)” value (gene Slc38a3) was −3.363. For the same compound, the “Fold Change (Pre- to Post-op)” value (gene Slc41a1) was −6.805, the “Fold Change (Pre- to Post-op)” value (gene Slc44a2) was −3.36 and the “Fold Change (Pre- to Post-op)” value (gene Slc52a3) was −3.531. The “Fold Change (Pre- to Post-op)” value (gene Slco2a1) was −3.663, the “Fold Change (Pre- to Post-op)” value (gene Slco3a1) was −3.762 and the “Fold Change (Pre- to Post-op)” value (gene Slfn8) was −3.54. The “Fold Change (Pre- to Post-op)” value (gene Slfn10-ps) was −5.224, the “Fold Change (Pre- to Post-op)” value (gene Slit2) was −4.689 and the “Fold Change (Pre- to Post-op)” value (gene Sltm) was −3.235. The “Fold Change (Pre- to Post-op)” value (gene Smad3) was −3.943, the “Fold Change (Pre- to Post-op)” value (gene Smad9) was −9.063 and the “Fold Change (Pre- to Post-op)” value (gene Smarca2) was −3.748. The “Fold Change (Pre- to Post-op)” value (gene Smarca4) was −3.199, the “Fold Change (Pre- to Post-op)” value (gene Smarcc1) was −3.386 and the “Fold Change (Pre- to Post-op)” value (gene Smarcc2) was −4.201. For the same compound, the “Fold Change (Pre- to Post-op)” value (gene Smc1a) was −3.44, the “Fold Change (Pre- to Post-op)” value (gene Smg6) was −3.269 and the “Fold Change (Pre- to Post-op)” value (gene Snap91) was −6.873. For the same compound, the “Fold Change (Pre- to Post-op)” value (gene Snapc4) was −3.061, the “Fold Change (Pre- to Post-op)” value (gene Sncaip) was −3.352 and the “Fold Change (Pre- to Post-op)” value (gene Snph) was −5.496. The “Fold Change (Pre- to Post-op)” value (gene Sntb1) was −6.247, the “Fold Change (Pre- to Post-op)” value (gene Snx29) was −4.109 and the “Fold Change (Pre- to Post-op)” value (gene Snx30) was −7.296. The “Fold Change (Pre- to Post-op)” value (gene Sobp) was −4.113, the “Fold Change (Pre- to Post-op)” value (gene Socs7) was −4.313 and the “Fold Change (Pre- to Post-op)” value (gene Sorbs3) was −3.021. The “Fold Change (Pre- to Post-op)” value (gene Sort1) was −3.517, the “Fold Change (Pre- to Post-op)” value (gene Sox4) was −3.393 and the “Fold Change (Pre- to Post-op)” value (gene Sox5) was −3.24. For the same compound, the “Fold Change (Pre- to Post-op)” value (gene Sox6) was −3.424, the “Fold Change (Pre- to Post-op)” value (gene Sox18) was −4.518 and the “Fold Change (Pre- to Post-op)” value (gene Sp2) was −4.073. For the same compound, the “Fold Change (Pre- to Post-op)” value (gene Sparcl1) was −4.284, the “Fold Change (Pre- to Post-op)” value (gene Spata13) was −3.562 and the “Fold Change (Pre- to Post-op)” value (gene Spock2) was −8.059. The “Fold Change (Pre- to Post-op)” value (gene Spred2) was −3.381, the “Fold Change (Pre- to Post-op)” value (gene Spry1) was −3.34 and the “Fold Change (Pre- to Post-op)” value (gene Sptan1) was −4.234. For the same compound, the “Fold Change (Pre- to Post-op)” value (gene Sptb) was −9.371, the “Fold Change (Pre- to Post-op)” value (gene Srgap1) was −8.901 and the “Fold Change (Pre- to Post-op)” value (gene Srgap3) was −6.097. The “Fold Change (Pre- to Post-op)” value (gene Srrm2) was −3.923, the “Fold Change (Pre- to Post-op)” value (gene Ssbp3) was −3.347 and the “Fold Change (Pre- to Post-op)” value (gene Ssh1) was −5.471. The “Fold Change (Pre- to Post-op)” value (gene St3gal2) was −3.178, the “Fold Change (Pre- to Post-op)” value (gene Stard13) was −3.362 and the “Fold Change (Pre- to Post-op)” value (gene Steap4) was −4.915. For the same compound, the “Fold Change (Pre- to Post-op)” value (gene Stim1) was −3.038, the “Fold Change (Pre- to Post-op)” value (gene Stk32a) was −3.423 and the “Fold Change (Pre- to Post-op)” value (gene Ston1) was −7.253. For the same compound, the “Fold Change (Pre- to Post-op)” value (gene Stox2) was −6.347, the “Fold Change (Pre- to Post-op)” value (gene Strn) was −3.934 and the “Fold Change (Pre- to Post-op)” value (gene Stxbp1) was −5.639. For the same compound, the “Fold Change (Pre- to Post-op)” value (gene Sufu) was −8.462, the “Fold Change (Pre- to Post-op)” value (gene Sun2) was −3.705 and the “Fold Change (Pre- to Post-op)” value (gene Supt6) was −3.709. The “Fold Change (Pre- to Post-op)” value (gene Sv2a) was −5.005, the “Fold Change (Pre- to Post-op)” value (gene Syde1) was −4.563 and the “Fold Change (Pre- to Post-op)” value (gene Sympk) was −3.344. For the same compound, the “Fold Change (Pre- to Post-op)” value (gene Syne1) was −5.644, the “Fold Change (Pre- to Post-op)” value (gene Synj2) was −3.88 and the “Fold Change (Pre- to Post-op)” value (gene Szt2) was −3.549. For the same compound, the “Fold Change (Pre- to Post-op)” value (gene Tacc1) was −3.983, the “Fold Change (Pre- to Post-op)” value (gene Tacc2) was −4.161 and the “Fold Change (Pre- to Post-op)” value (gene Tacr1) was −5.076. For the same compound, the “Fold Change (Pre- to Post-op)” value (gene Tacr2) was −3.784, the “Fold Change (Pre- to Post-op)” value (gene Taf3) was −4.215 and the “Fold Change (Pre- to Post-op)” value (gene Taf15) was −3.475. For the same compound, the “Fold Change (Pre- to Post-op)” value (gene Tagln) was 3.03, the “Fold Change (Pre- to Post-op)” value (gene Taok3) was −4.099 and the “Fold Change (Pre- to Post-op)” value (gene Tbc1d2b) was −3.66. For the same compound, the “Fold Change (Pre- to Post-op)” value (gene Tbc1d9) was −3.213, the “Fold Change (Pre- to Post-op)” value (gene Tbc1d9b) was −3.102 and the “Fold Change (Pre- to Post-op)” value (gene Tcf7) was −3.908. The “Fold Change (Pre- to Post-op)” value (gene Tchh) was −3.639, the “Fold Change (Pre- to Post-op)” value (gene Tcof1) was −5.131 and the “Fold Change (Pre- to Post-op)” value (gene Tead1) was −5.051. For the same compound, the “Fold Change (Pre- to Post-op)” value (gene Tek) was −3.204, the “Fold Change (Pre- to Post-op)” value (gene Tenc1) was −6.479 and the “Fold Change (Pre- to Post-op)” value (gene Tert) was −3.356. For the same compound, the “Fold Change (Pre- to Post-op)” value (gene Tet1) was −3.292, the “Fold Change (Pre- to Post-op)” value (gene Tet3) was −4.82 and the “Fold Change (Pre- to Post-op)” value (gene Tfcp2l1) was −5.377. The “Fold Change (Pre- to Post-op)” value (gene Tgfb1) was −3.309, the “Fold Change (Pre- to Post-op)” value (gene Tgfb1i1) was −4.123 and the “Fold Change (Pre- to Post-op)” value (gene Tgfb2) was −3.975. For the same compound, the “Fold Change (Pre- to Post-op)” value (gene Thada) was −5.268, the “Fold Change (Pre- to Post-op)” value (gene Thsd4) was −6.921 and the “Fold Change (Pre- to Post-op)” value (gene Ticrr) was −3.16. For the same compound, the “Fold Change (Pre- to Post-op)” value (gene Tie1) was −3.806, the “Fold Change (Pre- to Post-op)” value (gene Tigd5) was −3.757 and the “Fold Change (Pre- to Post-op)” value (gene Timp4) was −5.593. The “Fold Change (Pre- to Post-op)” value (gene Tll1) was −3.264, the “Fold Change (Pre- to Post-op)” value (gene Tln1) was −5.597 and the “Fold Change (Pre- to Post-op)” value (gene Tln2) was −4.77. The “Fold Change (Pre- to Post-op)” value (gene Tm9sf4) was −3.106, the “Fold Change (Pre- to Post-op)” value (gene Tmed8) was −4.234 and the “Fold Change (Pre- to Post-op)” value (gene Tmem2) was −3.098. The “Fold Change (Pre- to Post-op)” value (gene Tmem8b) was −6.932, the “Fold Change (Pre- to Post-op)” value (gene Tmem59l) was −6.998 and the “Fold Change (Pre- to Post-op)” value (gene Tmem63a) was −3.046. For the same compound, the “Fold Change (Pre- to Post-op)” value (gene Tmem104) was −5.425, the “Fold Change (Pre- to Post-op)” value (gene Tmem130) was −6.718 and the “Fold Change (Pre- to Post-op)” value (gene Tmem131) was −4.328. For the same compound, the “Fold Change (Pre- to Post-op)” value (gene Tmem163) was −5.177.
